According to paper PMC5691159 (Nature Communications, 2017):
These are yes or no findings as the source states them, for the method shown. Binding can be weak; no strength is given. Tags and fused reporters may be left off the sequences shown. For part of these data: In cells and extracts the contact can be indirect.

Experiments:
[1] = biological target: T1, recombinant PfRhopH3-C protein (aa 617–865) with C-terminal hexa-Histidine tag (P. falciparum) (UniProt Q8I395); assay: far-Western, overlay or dot blot; bait protein (2 µg) run on 12% SDS-PAGE, transferred to PVDF, denatured and renatured; prey protein 3 µg/mL in binding buffer (100 mM NaCl, 20 mM Tris pH 7.6, 0.5 mM EDTA, 10% glycerol, 0.1% Tween-20, 2% skim milk, 1 mM DTT), 2 h at RT; both purified
T1 sequence: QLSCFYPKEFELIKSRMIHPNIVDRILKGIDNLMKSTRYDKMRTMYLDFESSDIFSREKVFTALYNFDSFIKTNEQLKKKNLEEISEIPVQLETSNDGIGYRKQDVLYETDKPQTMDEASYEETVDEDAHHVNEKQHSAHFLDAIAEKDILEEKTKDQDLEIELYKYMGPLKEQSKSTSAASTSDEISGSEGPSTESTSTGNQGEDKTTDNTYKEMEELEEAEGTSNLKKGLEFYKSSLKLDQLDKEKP

[2] = biological target: T1, recombinant PfRhopH3-C protein (aa 617–865) with C-terminal hexa-Histidine tag (P. falciparum); assay: ELISA; bait protein coated overnight at 200 ng in carbonate/bicarbonate buffer pH 9.6; prey protein 100, 200, 400, 800 ng in 100 µl binding buffer (50 mM HEPES, 250 mM potassium acetate, 5 mM magnesium acetate, pH 8.0), 1 h at 37 °C; prey detected by antibody; both purified
[3] = biological target: recombinant Cyclophilin B (Sino Biological) (human); assay: as above
[4] = biological target: recombinant Cyclophilin B (Sino Biological) (human); assay: co-IP; Pierce Co-IP kit: antibody against the bait protein immobilised on coupling resin; mixture of bait and prey (PfRhopH3-C) proteins, 8 µg each, up to 4 h at 4 °C; prey detected by western blot; both purified
[5] = biological target: recombinant Cyclophilin B (Sino Biological) (human); assay: ELISA; ELISA-based inhibition assay with CsA as inhibitor; both purified
[6] = biological target: recombinant Cyclophilin B (Sino Biological) (human); assay: ELISA; ELISA-based inhibition assay: Cyclophilin B coated wells incubated with different concentrations of recombinant CDP3, then binding of the partner; both purified

Measured: binding

recombinant Cyclophilin B (Sino Biological) (human)
binds: [1] | [2]

B1: recombinant PfRhopH3-C protein (aa 617–865) with C-terminal hexa-Histidine tag (domain or fragment)
chain: T1 sequence
binds: [3] | [4] | [5] | [6]
